{"source": "PubChem BioAssay AID212", "about": "(DTP/NCI, 2004)", "tested_on": "BDF1 mice, colon carcinoma 38 sc, T/C %", "assay": "NCI In Vivo Anticancer Drug Screen. Data for tumor model Colon Carcinoma 38 (subcutaneous) in B6D2F1 (BDF1) mice", "details": "T/C endpoint: median tumor weight (est.), higher T/C = larger tumour; for T/C: evaluated on day 20", "outline": "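Compound antitumor activity was assessed in mice carrying transplantable tumors. Survival or tumor size was recorded, and each value is the treated-group measurement divided by that of the vehicle-treated control group.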", "key": {"[1]": {"details": "dose: 128.0 mg/kg/injection, schedule: Q07DX002 (ip), vehicle: saline"}, "[2]": {"details": "dose: 200.0 mg/kg/injection, schedule: Q07DX002 (ip), vehicle: saline"}, "[3]": {"details": "dose: 400.0 mg/kg/injection, schedule: Q07DX002 (ip), vehicle: saline"}, "[4]": {"details": "dose: 40.0 mg/kg/injection, schedule: Q07DX002 (ip), vehicle: sodium bicarbonate"}, "[5]": {"details": "dose: 60.0 mg/kg/injection, schedule: Q07DX002 (ip), vehicle: sodium bicarbonate"}, "[6]": {"details": "dose: 90.0 mg/kg/injection, schedule: Q07DX002 (ip), vehicle: sodium bicarbonate"}, "[7]": {"details": "dose: 135.0 mg/kg/injection, schedule: Q07DX002 (ip), vehicle: sodium bicarbonate"}}, "note": "The list does not hold the whole screen: it is rich in T/C values a quarter to a half above the control, in often repeated tests (any T/C) and in doses without a T/C. Further doses and runs are listed elsewhere. T/C is the treated group as % of the vehicle group. Schedules are NCI's codes, taken here to give the interval after Q, in days (D) or hours (H), and the number of doses after X. Some T/C values carry the count of animals alive at the toxicity check (mostly the fifth day); where none is given, no animal had died by that day. Some doses were run more than once; their values stand side by side, smallest first. Marks such as (2×) stand for listed records that agree. Some entries give survivors of the animals treated and no T/C: the source holds a T/C of zero for them, seemingly a mark for toxic or unscored doses. Counts of survivors are from the toxicity check (mostly the fifth day) where no day follows; animals may have died later."}
{"molecule": "Cc1c(N)nc([C@H](CC(N)=O)NC[C@H](N)C(N)=O)nc1C(=O)N[C@H](C(=O)N[C@H](C)[C@@H](O)[C@H](C)C(=O)N[C@H](C(=O)NCCc1nc(-c2nc(C(=O)NCCC[S+](C)C)cs2)cs1)[C@@H](C)O)C(OC1OC(CO)C(O)C(O)C1OC1OC(CO)C(O)C(OC(N)=O)C1O)c1cnc[nH]1", "note": "(stereo partly specified)", "values": [{"measurement": "T/C", "setting": "dose: 1.5 mg/kg/injection, schedule: Q07DX003 (ip), vehicle: saline", "result": "128 % of control"}, {"measurement": "T/C", "setting": "dose: 16.0 mg/kg/injection, schedule: Q07DX002 (ip), vehicle: saline", "result": "22 [9 of 10 alive on day 20], 68, 86, 112 % of control [9 of 10 alive on day 20]"}, {"measurement": "T/C", "setting": "dose: 32.0 mg/kg/injection, schedule: Q07DX002 (ip), vehicle: saline", "result": "24, 40 [9 of 10 alive on day 20], 52, 104 % of control"}, {"measurement": "T/C", "setting": "dose: 64.0 mg/kg/injection, schedule: Q07DX002 (ip), vehicle: saline", "result": "11 [9 of 10 alive on day 20], 32, 47 [9 of 10 alive on day 20], 59 % of control"}, {"measurement": "T/C", "setting": "[1]", "result": "23 [9 of 10 alive on day 20], 25, 26 % of control [8 of 10 alive on day 20]"}, {"measurement": "survivor count", "setting": "[1]", "result": "6 of 10 on day 20"}, {"measurement": "survivor count", "setting": "dose: 256.0 mg/kg/injection, schedule: Q07DX002 (ip), vehicle: saline", "result": "0 of 10 on day 20"}]}
{"molecule": "Cn1c2nc(=O)n(-c3ccccc3)c(=O)c-2nc2c1CCCC2", "values": [{"measurement": "survivor count", "setting": "dose: 200.0 mg/kg/injection, schedule: Q07DX002 (ip), vehicle: saline with Tween-80", "result": "0 of 10 on day 20"}, {"measurement": "survivor count", "setting": "dose: 400.0 mg/kg/injection, schedule: Q07DX002 (ip), vehicle: saline with Tween-80", "result": "0 of 10 on day 20"}]}
{"molecule": "C=CCOCC1CO1", "note": "(stereo unspecified)", "values": [{"measurement": "T/C", "setting": "dose: 12.5 mg/kg/injection, schedule: Q07DX002 (ip), vehicle: saline", "result": "125 % of control"}, {"measurement": "T/C", "setting": "dose: 100.0 mg/kg/injection, schedule: Q07DX002 (ip), vehicle: saline", "result": "130 % of control"}, {"measurement": "T/C", "setting": "[2]", "result": "128 % of control [8 of 10 alive on day 20]"}, {"measurement": "survivor count", "setting": "[3]", "result": "2 of 10 on day 20 and 6 of 10 on day 20"}]}
{"molecule": "CC1(C)COCN1COCCOCN1COCC1(C)C", "values": [{"measurement": "T/C", "setting": "[2]", "result": "130 % of control"}, {"measurement": "survivor count", "setting": "[2]", "result": "3 of 10 on day 20"}, {"measurement": "survivor count", "setting": "[3]", "result": "0 of 10 on day 20"}]}
{"molecule": "ClCCCN1CCN(CCCCl)CC1", "values": [{"measurement": "T/C", "setting": "dose: 12.5 mg/kg/injection, schedule: Q07DX002 (ip), vehicle: distilled water + alcohol", "result": "135 % of control"}, {"measurement": "T/C", "setting": "dose: 25.0 mg/kg/injection, schedule: Q07DX002 (ip), vehicle: distilled water + alcohol", "result": "135 % of control"}, {"measurement": "survivor count", "setting": "dose: 200.0 mg/kg/injection, schedule: Q07DX002 (ip), vehicle: distilled water + alcohol", "result": "0 of 10 on day 20"}, {"measurement": "survivor count", "setting": "dose: 400.0 mg/kg/injection, schedule: Q07DX002 (ip), vehicle: distilled water + alcohol", "result": "0 of 10 on day 20"}]}
{"molecule": "O=C(/C=C(\\Cl)C(=O)NO)NO", "values": [{"measurement": "T/C", "setting": "dose: 50.0 mg/kg/injection, schedule: Q07DX002 (ip), vehicle: suspension in saline", "result": "127 % of control"}, {"measurement": "survivor count", "setting": "[2]", "result": "3 of 10 on day 20"}, {"measurement": "survivor count", "setting": "dose: 200.0 mg/kg/injection, schedule: Q07DX002 (ip), vehicle: suspension in saline", "result": "1 of 10 on day 20"}, {"measurement": "survivor count", "setting": "[3]", "result": "0 of 10 on day 20"}, {"measurement": "survivor count", "setting": "dose: 400.0 mg/kg/injection, schedule: Q07DX002 (ip), vehicle: suspension in saline", "result": "0 of 10 on day 20"}]}
{"molecule": "Cc1nnc2ncccn12", "values": [{"measurement": "T/C", "setting": "[3]", "result": "126 % of control"}, {"measurement": "survivor count", "setting": "dose: 800.0 mg/kg/injection, schedule: Q07DX002 (ip), vehicle: saline", "result": "0 of 10 on day 20"}]}
{"molecule": "CN(Cc1cnc2nc(N)nc(N)c2n1)c1ccc(C(=O)N[C@@H](CCC(=O)O)C(=O)O)cc1", "values": [{"measurement": "T/C", "setting": "dose: 5.0 mg/kg/injection, schedule: Q07DX002 (ip), vehicle: sodium bicarbonate", "result": "141 % of control"}, {"measurement": "survivor count", "setting": "dose: 20.0 mg/kg/injection, schedule: Q07DX002 (ip), vehicle: sodium bicarbonate", "result": "4 of 10 on day 20"}, {"measurement": "T/C", "setting": "dose: 26.0 mg/kg/injection, schedule: Q07DX002 (ip), vehicle: sodium bicarbonate", "result": "49, 69 [9 of 10 alive on day 20], 86 [9 of 10 alive on day 20], 92, 93, 99, 114 [9 of 10 alive on day 20], 123, 124 [9 of 10 alive on day 20], 278 % of control"}, {"measurement": "T/C", "setting": "[4]", "result": "50 [7 of 10 alive on day 20], 71 [9 of 10 alive on day 20], 74, 76 (2×), 89 [9 of 10 alive on day 20], 91 [9 of 10 alive on day 20], 101, 112, 114 % of control"}, {"measurement": "survivor count", "setting": "[4]", "result": "2 of 10 on day 20"}, {"measurement": "T/C", "setting": "[5]", "result": "49 [9 of 10 alive on day 20], 65 [7 of 10 alive on day 20], 76 [8 of 10 alive on day 20], 85 [7 of 10 alive on day 20], 92, 96 [9 of 10 alive on day 20], 119, 119 [7 of 10 alive on day 20], 120 % of control [9 of 10 alive on day 20]"}, {"measurement": "survivor count", "setting": "[5]", "result": "2 of 10 on day 20 and 5 of 10 on day 20"}, {"measurement": "T/C", "setting": "[6]", "result": "69 [8 of 10 alive on day 20], 75 [9 of 10 alive on day 20], 96, 129 % of control"}, {"measurement": "survivor count", "setting": "[6]", "result": "0 of 10 on day 20, 1 of 10 on day 20, 1 of 9 on day 20, 2 of 10 on day 20, 3 of 10 on day 20, 5 of 10 on day 20"}, {"measurement": "T/C", "setting": "[7]", "result": "34 [9 of 10 alive on day 20], 85 [9 of 10 alive on day 20], 156 % of control"}, {"measurement": "survivor count", "setting": "[7]", "result": "0 of 10 on day 20, 0 of 8 on day 20, 2 of 10 on day 20, 3 of 10 on day 20"}]}
{"molecule": "OC1CCCC2CCC[N-]C12.OC1CCCC2CCC[N-]C12.[Mn+2]", "note": "(stereo unspecified)", "values": [{"measurement": "T/C", "setting": "dose: 12.5 mg/kg/injection, schedule: Q07DX002 (ip), vehicle: Klucel (hydroxypropylcellulose) (HPC)", "result": "141 % of control"}, {"measurement": "T/C", "setting": "dose: 50.0 mg/kg/injection, schedule: Q07DX002 (ip), vehicle: Klucel (hydroxypropylcellulose) (HPC)", "result": "132 % of control"}, {"measurement": "T/C", "setting": "dose: 400.0 mg/kg/injection, schedule: Q07DX002 (ip), vehicle: Klucel (hydroxypropylcellulose) (HPC)", "result": "126 % of control [8 of 10 alive on day 20]"}]}
{"molecule": "CCC1CC2CN(CCc3c([nH]c4ccccc34)C(C(=O)OC)(c3cc4c(cc3OC)N(C)C3C(O)(C(=O)OC)C(OC(C)=O)C5(CC)C=CCN6CCC43C65)C2)C1", "note": "(stereo unspecified)", "values": [{"measurement": "T/C", "setting": "dose: 2.0 mg/kg/injection, schedule: Q07DX002 (ip), vehicle: suspension in saline", "result": "135 % of control"}, {"measurement": "T/C", "setting": "dose: 4.0 mg/kg/injection, schedule: Q07DX002 (ip), vehicle: suspension in saline", "result": "144 % of control"}, {"measurement": "survivor count", "setting": "dose: 8.0 mg/kg/injection, schedule: Q07DX002 (ip), vehicle: suspension in saline", "result": "6 of 10 on day 20"}]}
{"molecule": "CC[C@]1(O)C[C@H](OC2CC(N(C)C)C(OC3CC(O)C(O)C(C)O3)C(C)O2)c2c(cc3c(c2O)C(=O)c2c(O)ccc(O)c2C3=O)[C@H]1C(=O)OC", "note": "(stereo partly specified)", "values": [{"measurement": "T/C", "setting": "dose: 2.0 mg/kg/injection, schedule: Q07DX003 (ip), vehicle: Klucel (hydroxypropylcellulose) (HPC)", "result": "142 % of control"}]}
{"molecule": "CC1=C2CC(C)(C)/C=C\\C(=O)/C(C)=C\\C3=C[C@H](C)C[C@]3(O2)C1=O", "values": [{"measurement": "T/C", "setting": "dose: 12.0 mg/kg/injection, schedule: Q07DX002 (ip), vehicle: Klucel (hydroxypropylcellulose) (HPC)", "result": "145 % of control"}]}
